## Primary screen of a compound library

The values are deposited in ChEMBL (CHEMBL3988442, “University of Dundee, Small-Polar-MMV Screening Library” (2021)).

A: 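Growth of Mycobacterium tuberculosis over 3 days (7H9 medium with glucose and tyloxapol); the read-out is not stated. Concentration: 50 µM. Direction is inferred from retests: higher values go with more growth inhibition. Size under these conditions: about 69,000 compounds, about 760 of them at 50% or above in at least one test.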
B: 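Phenotypic screen: M. tuberculosis growth, cholesterol and DPPC medium, 4 days; the read-out is not stated. Tested at 50 µM. Higher reads as more growth inhibition (inferred: compounds with an IC50 in retests scored well above the rest). About 69,000 compounds were tested under these conditions; 0.54% (about 370) showed 50% or more at least once.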

Values are the deposited “Percent Effect”, in %.
The record does not define 0% and 100%; most values in the screen are far below 50% and negative numbers occur (in some assays of this library far below -100).
The compounds are a random part of those screened.
Two or more numbers in one place are separate tests of the same structure; such repeats can differ widely.

- Cc1nc(C2CCCN(C(=O)c3cccc4c3OCO4)C2)no1 (centres undefined) | A: -41.8%; B: -28.83%
- Cc1ccc(OCC(C)NC(=O)CN(C)c2ccc(C#N)cn2)cc1 (centres undefined) | A: -13.83%; B: -13.61%
- O=C(CCNC(=O)C1=Cc2ccccc2OC1)Nc1cccnc1 | A: 2.81% and 11.05%; B: -4.562%
- CCOCC1CC2(CCN(C(=O)C3CC=CC3)CC2)CO1 (centres undefined) | A: -23.11% and -7.238%; B: -19.32%
- CCC1(CO)CCN(C(=O)c2cc(COc3ccccc3F)[nH]n2)CC1 | A: -3.626%; B: -31.5% and -3.142%
- O=C1CC(C(=O)O)C2(CCN(C(=O)Nc3ccccc3Cl)CC2)N1 (centres undefined) | A: 9.095%; B: -9.74% and -1.703%
- Cc1n[nH]c(C2CN(CC(=O)NCc3ccco3)CCO2)n1 (centres undefined) | A: -17.8%; B: -18.19%
- Cc1cc(NC(=O)CN2CCc3cnc(C(C)C)nc3C2)on1 | A: 13.09%; B: -3.876%
- CS(=O)(=O)N1Cc2ccccc2CC2(CCN(Cc3ccccn3)C2)C1 (centres undefined) | A: 14.14%; B: 2.27%
- O=c1ccc(-c2cccs2)nn1CN1CCN(C2CCS(=O)(=O)C2)CC1 (centres undefined) | A: -23.74%; B: -6.154%
- COc1ccc(CC(=O)N2CCCC(n3cccn3)C2)cc1F (centres undefined) | A: 3.475%; B: 18.38%
- COc1ccc2c(c1)CCCN(C(C)C(=O)N1CCCC1)C2 (centres undefined) | A: 24.34%; B: 3.37%
- O=C(CS(=O)(=O)Cc1nnnn1C1CC1)NCC1CC1 | A: -3.823%; B: -10.68%
- CC1c2ncc(COCC3CC3)n2CCN1C(=O)c1ccn(C)n1 (centres undefined) | A: -8.132%; B: -15.87%
- Cc1cc(C(=O)N2CCCC(c3nccn3C)C2)cc(S(N)(=O)=O)c1C (centres undefined) | A: 45.29%; B: 5.405% and 3.894%
- COC1CN(C(=O)NCC(N)=O)CCC(=O)N(C)c2ccccc21 (centres undefined) | A: 3.527%; B: -19.94%
- O=C(CCn1cncn1)NCC(c1ccco1)N1CCCCC1 (centres undefined) | A: -13.59%; B: -17.63%
- Cc1noc(C)c1CCC(=O)N1CCCCC1CNS(C)(=O)=O (centres undefined) | A: 9.488%; B: -5.11%
- CC(NC(=O)CCCN(C)C)c1cn(-c2ccccc2)nn1 (centres undefined) | A: 14.91%; B: -28.51%
- CC1CC(=O)c2cc(C(=O)N3CCc4ccccc4C3)c(=O)[nH]c2C1 (centres undefined) | A: 16.72%; B: -1.091%
- CCNC(=O)NCCc1csc(N2CCCC2)n1 | A: -12.44%; B: -4.896% and -3.787%
- O=C(c1cc(F)cc2[nH]cnc12)N1CCCCC1Cn1cccn1 (centres undefined) | A: 7.949%; B: 15.49%
- Cc1ccc(CCCC(=O)N2CCCC(CS(N)(=O)=O)C2)s1 (centres undefined) | A: 30.64%; B: 20.84%
- CCS(=O)(=O)NCC(=O)N1CCC(c2cc3ccccc3[nH]2)CC1 | A: -24.48%; B: -0.09145%
- CC(=O)N1CCOCC(Cc2ccc3c(ccn3C)c2)C1 (centres undefined) | A: 2.097%; B: 1.732% and -25.02%
- [H][C@]12CCCCN1CCC[C@@]2(O)CNCC1(Cn2ccnc2)CC1 | A: 10.96%; B: -7.35%
- Cc1cc(C)nc(N2CCC(C(=O)O)(n3ccc(C(C)(C)C)n3)CC2)n1 | A: 0.3132%; B: 8.702%
- CC(=O)NCc1ccc(-c2ccccc2C(=O)O)cn1 | A: -10.66%; B: 1.898% and 18.5%
- Cc1ccc(-c2nc(CSCCC(=O)NC(N)=O)co2)cc1 | A: -9.134%; B: -25.54%
- O=C(c1ccc(Cn2cc(Br)cn2)cc1)N1CCCC1 | A: -43.27%; B: -35.96%
- O=C(c1cnc(NCc2sccc2Br)c(Cl)c1)N1CCCCC1 | A: 16.19%; B: -4.533%
- Cc1nc(-c2ccccc2)sc1CSCCS(C)(=O)=O | A: -19.37%; B: -18.73%
- CC(C)c1cc(NC(CO)CO)n2nccc2n1 | A: 3.573% and 19.73%; B: 4.513%
- Cc1cnn(CC2CCCN2Cc2nnc(-c3ccccc3)o2)c1 (centres undefined) | A: 28.35% and 14.03%; B: 13.17%
- CCCC(=O)N1CCC2(CC1)CN(Cc1cccc(C)n1)C(=O)CO2 | A: 25.46%; B: 20.51%
- [H][C@@]12C[C@H](C(=O)N(C)C)[C@@]([H])(CN(c3ncc(C)cn3)C1)O2 | A: -2.082%; B: 6.11%
- CC(CCN1CCOCC1)NC(=O)c1cccc(C(F)(F)F)c1F (centres undefined) | A: -25.21%; B: 1.442%
- CCCN1CCCCCC1Cc1c(C(=O)NC)sc2ccccc12 (centres undefined) | A: 14.09%; B: -17.52% and 8.157%
- CCn1ccnc1CN1CCCC(CO)(Cc2cccc(Cl)c2)C1 (centres undefined) | A: 14.19%; B: 16.93%
- CC(C)N1CCc2ncn(C)c2C1C(=O)N1CCOCC1.O=C(O)C(F)(F)F (centres undefined) | A: -5.548% and -5.349%; B: -1.499%
- CC1CCCCN1C1CN(c2ccnc(C(=O)NCc3ccco3)c2)C1 (centres undefined) | A: 47.98%; B: -2.669%
- O=C(Nc1ccnc(OC2CCOC2)c1)c1cccs1 (centres undefined) | A: 8.501% and 1.181%; B: 18.62%

5 of the entries, repeated:

compound,A,B
CCC1(CO)CCN(C(=O)c2cc(COc3ccccc3F)[nH]n2)CC1,-3.626%,-31.5% and -3.142%
Cc1noc(C)c1CCC(=O)N1CCCCC1CNS(C)(=O)=O (centres undefined),9.488%,-5.11%
Cc1ccc(-c2nc(CSCCC(=O)NC(N)=O)co2)cc1,-9.134%,-25.54%
CC(NC(=O)CCCN(C)C)c1cn(-c2ccccc2)nn1 (centres undefined),14.91%,-28.51%
CS(=O)(=O)N1Cc2ccccc2CC2(CCN(Cc3ccccn3)C2)C1 (centres undefined),14.14%,2.27%